Experimental data taken from patent US11058737B2, “Use of Euycoma longifolia extract in alleviating symptoms and/or conditions associated with hormonal imbalance in females” ([…] BERHAD, priority 2018, dated 2021).

Test: Feed consumption (feed intake) of ovariectomized rats
Assay type: in vivo, Sprague Dawley rats
Conditions: 10 mg/kg intramuscular once every 4 weeks

## CCCCCCCCCCC(=O)O[C@H]1CC[C@H]2[C@@H]3CCC4=CC(=O)CC[C@]4(C)[C@H]3CC[C@]12C [Testosterone undecanoate]
Basal
  Feed Intake: 15.4 ± 0.4 g/animal/day
Week 01
  Feed Intake: 18.8 ± 0.0 g/animal/day
Week 02
  Feed Intake: 19.3 ± 0.1 g/animal/day
Week 03
  Feed Intake: 19.4 ± 0.1 g/animal/day
Week 04
  Feed Intake: 19.9 ± 0.1 g/animal/day
Week 05
  Feed Intake: 20.1 ± 0.0 g/animal/day
Week 06
  Feed Intake: 20.1 ± 0.0 g/animal/day
Week 07
  Feed Intake: 20.2 ± 0.0 g/animal/day
Week 08
  Feed Intake: 15.4 ± 0.4 g/animal/day
